The values that follow come from article PMC3991325.

The assay addresses T1, Rrp5-HTP (budding yeast), Q05022.
T1 chain: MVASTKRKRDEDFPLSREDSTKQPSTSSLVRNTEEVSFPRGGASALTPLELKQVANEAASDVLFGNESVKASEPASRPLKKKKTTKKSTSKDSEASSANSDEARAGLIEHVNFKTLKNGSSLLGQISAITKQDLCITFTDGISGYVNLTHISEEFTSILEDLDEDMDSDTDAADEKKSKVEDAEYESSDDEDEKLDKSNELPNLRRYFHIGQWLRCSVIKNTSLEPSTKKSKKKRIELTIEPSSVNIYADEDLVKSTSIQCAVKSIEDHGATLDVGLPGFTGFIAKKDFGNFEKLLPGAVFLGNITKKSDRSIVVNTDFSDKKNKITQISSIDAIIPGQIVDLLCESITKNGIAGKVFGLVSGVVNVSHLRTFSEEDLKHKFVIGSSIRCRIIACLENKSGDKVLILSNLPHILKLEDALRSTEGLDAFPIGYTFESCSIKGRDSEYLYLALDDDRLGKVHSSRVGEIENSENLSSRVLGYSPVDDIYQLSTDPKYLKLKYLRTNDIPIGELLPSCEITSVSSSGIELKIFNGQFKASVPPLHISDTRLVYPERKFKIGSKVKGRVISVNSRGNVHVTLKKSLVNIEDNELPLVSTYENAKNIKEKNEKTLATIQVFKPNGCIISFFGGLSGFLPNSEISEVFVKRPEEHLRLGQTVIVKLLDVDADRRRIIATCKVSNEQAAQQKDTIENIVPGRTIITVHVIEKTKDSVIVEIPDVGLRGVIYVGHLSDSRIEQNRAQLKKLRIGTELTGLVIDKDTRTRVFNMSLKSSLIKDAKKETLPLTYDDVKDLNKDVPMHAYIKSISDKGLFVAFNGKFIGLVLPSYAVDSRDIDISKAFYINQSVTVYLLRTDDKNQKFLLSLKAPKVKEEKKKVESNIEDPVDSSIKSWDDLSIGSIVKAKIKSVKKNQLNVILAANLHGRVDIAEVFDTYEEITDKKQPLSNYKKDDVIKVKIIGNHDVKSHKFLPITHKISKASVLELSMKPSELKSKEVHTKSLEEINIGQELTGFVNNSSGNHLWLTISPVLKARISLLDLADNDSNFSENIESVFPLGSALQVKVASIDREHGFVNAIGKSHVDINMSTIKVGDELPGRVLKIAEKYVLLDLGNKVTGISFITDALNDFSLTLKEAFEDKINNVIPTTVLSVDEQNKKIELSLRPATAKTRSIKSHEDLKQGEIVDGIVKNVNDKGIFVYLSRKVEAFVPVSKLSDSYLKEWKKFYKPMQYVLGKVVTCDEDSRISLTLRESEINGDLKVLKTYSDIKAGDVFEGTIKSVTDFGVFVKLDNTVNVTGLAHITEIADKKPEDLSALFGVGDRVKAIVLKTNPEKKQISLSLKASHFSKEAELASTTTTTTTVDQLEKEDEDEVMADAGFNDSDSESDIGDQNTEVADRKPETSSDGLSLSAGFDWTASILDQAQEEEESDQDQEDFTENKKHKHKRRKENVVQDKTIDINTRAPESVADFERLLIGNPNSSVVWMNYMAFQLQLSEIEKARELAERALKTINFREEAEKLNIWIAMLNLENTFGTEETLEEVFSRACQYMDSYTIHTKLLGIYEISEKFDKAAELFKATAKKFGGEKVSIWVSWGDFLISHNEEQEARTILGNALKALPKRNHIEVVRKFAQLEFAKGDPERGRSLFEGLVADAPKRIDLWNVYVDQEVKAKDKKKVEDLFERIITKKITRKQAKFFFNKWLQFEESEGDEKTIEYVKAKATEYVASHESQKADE
The assay is described as follows: affinity purification with mass spectrometry; Rrp5-HTP bound to an IgG column, RNase treatment, brief formaldehyde crosslinking on the column, washing under denaturing conditions (8 M urea), release by brief decrosslinking and SDS; the material migrating above Rrp5 in SDS-PAGE analysed by mass spectrometry; Brr2 as control bait. The conditions noted are these: remark: other sources report otherwise.

No constants are given. Whether binding was seen depends on the method and setting. Binding seen in cells or lysates may run through a third protein. A yes stands for co-enrichment or nearness to the bait. Other partners may have been found.

B1: Rix1, P38883 1-763 (protein)
chain: MSEEFIAVSTLARNLEIAKGNEFHTILATLRSPVYINEQLLKSELSFLVTKILKLIRSGNDFDLWKGCHTSVVTCAYNPLVLSTHGGQLLAAIYSRLEQKTGFYSSVISSSHGKQLFNTLISSVAIIIDLMKNKPTLSREALVPKLKAIIPTLITLSQYEPELVLPVLQRILKRNTTTFKPFTNKFRTVLINLIISDYASLGTKTQRLVCENFAYLHLLKIQVSDTSDDETQAHHKIYADSNWRTGLMSILSQFKPIIQLCGEILDFEQDNELYKLIKSLPVIDESNNKEEFLPSLKLDFNAPLTLWEIPQRLSLLADMLVAFISLPTPFPIRVPLGGINSLCEVLLGVSNKYLPLKKELRHDNELNGVINTILPQIQFQGIRLWEIMVSKYGKCGLSFFEGILSSIELFIPLKKKSNNEIDFNVVGSLKFEFATVFRLVNMILSHLGHQLNIISVISQLIEVALFLSHDKTLIDSLFKNRKSIMKQQTKTKQSKRSKSAEGAFSDIYTHPELFVCKNSMNWFNEINDFFITALNNWILPSTPHIQILKYSITQSLRLKERFGYIPESFVNLLRCEVLHPGSERVSILPIAISLLKNINDDMFELLCHPKVPVGMVYQLHKPLDLGEDGEVRDDINKKEVETNESSSNANTGLETLKALENLENVTIPEPKHEVPKVVDDTAIFKKRSVEEVIERESTSSHKKVKFVEETTVDNGEELIVKKAVSQTKEEEKPMEDSEDEEQEEFEIPAIELSDDEEEEEEEE
For B1, the binding entry is given as “binds”.
